A short description of the data set: Bodyweight and blood glucose in 4VO study. The format is in vivo, rat. The note with it: 1.1-30 mg/kg/dose s.c., all groups.

As for `N=C1N[C@H]2[C@H](CS[C@H]2CCCCC(=O)O)N1` [2-IB, 2-iminobiotin], the blood glucose values entry was “no significant differences between blood glucose values were found” and the bodyweight over time entry is “no significant difference between treatment groups”.
